Source: patent US20260209365A1, “ANTI-COMMON GAMMA CHAIN PROTEINS AND COMPOSITIONS OF MATTER” (SINOMAB BIOSCIENCE LIMITED, priority 2023, published 2026)
Results are given in words; binding and its absence hold for the method and conditions named. Some entries that bind do so weakly or less than the wild type.

Tests used:
[1] = target: T1, common marmoset γc protein, full length, on HEK-293 cells (common marmoset) (UniProt A5HJL6); experiment: flow cytometry, FITC-conjugated hSM-05A on transfected HEK-293 cells
T1 sequence: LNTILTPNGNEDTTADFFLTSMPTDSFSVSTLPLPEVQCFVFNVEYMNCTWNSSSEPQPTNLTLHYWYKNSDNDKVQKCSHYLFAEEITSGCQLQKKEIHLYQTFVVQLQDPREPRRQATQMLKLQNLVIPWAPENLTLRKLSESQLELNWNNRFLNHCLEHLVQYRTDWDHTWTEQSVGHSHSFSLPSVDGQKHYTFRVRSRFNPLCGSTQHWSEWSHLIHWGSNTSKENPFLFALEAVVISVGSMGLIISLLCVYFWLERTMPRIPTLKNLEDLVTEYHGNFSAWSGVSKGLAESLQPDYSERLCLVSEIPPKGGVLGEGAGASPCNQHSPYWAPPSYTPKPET

[2] = target: T1, common marmoset γc protein, full length, on HEK-293 cells (common marmoset); experiment: flow cytometry, FITC-labelled hSM-05A (33 nM) on transfected HEK-293 cells
[3] = target: T1, common marmoset γc protein, full length, on HEK-293 cells (common marmoset); experiment: flow cytometry, FITC-hSM-05A at 33 nM (5 µg/ml) on HEK-293 cells transfected with full-length common marmoset γc, N=3

Measured: binding

B1: hSM-05A, humanized anti-γc antibody with back-mutation (antibody, V domains shown)
VH: QVQLVQSGAEVLKPGASVKVSCKASGYTFTEYTMHWVKQARGQRLEWIGGIDPYNGGATYNQRFKGKATLTTDTSTSTAYMELRNLRSDDTAVYYCARRRLYYGNALDYWGQGTLVTVSS
VL: DIVMTQSPLSLPVTPGEQASISCRSSQSLVHSNGNTYLHWYLQKPGQSPQLLIYKVSSRFSGVPDRFSGSGSGTDFTLKISRVEAEDVGVYFCSQTTHVPFTFGSGTKLEIKR
binds: [1] | [2] | [3]
